Data taken from article PMC6166740.
No constants are given. Whether binding was seen depends on the method and setting. In cells and extracts the contact can be indirect. Some binding calls cover weakened binding; strength is not graded here. Sequences can lack the tags named with a protein.

The chains behind the UniProt entries cited, without tags or fusion partners.
UniProt Q9UG01: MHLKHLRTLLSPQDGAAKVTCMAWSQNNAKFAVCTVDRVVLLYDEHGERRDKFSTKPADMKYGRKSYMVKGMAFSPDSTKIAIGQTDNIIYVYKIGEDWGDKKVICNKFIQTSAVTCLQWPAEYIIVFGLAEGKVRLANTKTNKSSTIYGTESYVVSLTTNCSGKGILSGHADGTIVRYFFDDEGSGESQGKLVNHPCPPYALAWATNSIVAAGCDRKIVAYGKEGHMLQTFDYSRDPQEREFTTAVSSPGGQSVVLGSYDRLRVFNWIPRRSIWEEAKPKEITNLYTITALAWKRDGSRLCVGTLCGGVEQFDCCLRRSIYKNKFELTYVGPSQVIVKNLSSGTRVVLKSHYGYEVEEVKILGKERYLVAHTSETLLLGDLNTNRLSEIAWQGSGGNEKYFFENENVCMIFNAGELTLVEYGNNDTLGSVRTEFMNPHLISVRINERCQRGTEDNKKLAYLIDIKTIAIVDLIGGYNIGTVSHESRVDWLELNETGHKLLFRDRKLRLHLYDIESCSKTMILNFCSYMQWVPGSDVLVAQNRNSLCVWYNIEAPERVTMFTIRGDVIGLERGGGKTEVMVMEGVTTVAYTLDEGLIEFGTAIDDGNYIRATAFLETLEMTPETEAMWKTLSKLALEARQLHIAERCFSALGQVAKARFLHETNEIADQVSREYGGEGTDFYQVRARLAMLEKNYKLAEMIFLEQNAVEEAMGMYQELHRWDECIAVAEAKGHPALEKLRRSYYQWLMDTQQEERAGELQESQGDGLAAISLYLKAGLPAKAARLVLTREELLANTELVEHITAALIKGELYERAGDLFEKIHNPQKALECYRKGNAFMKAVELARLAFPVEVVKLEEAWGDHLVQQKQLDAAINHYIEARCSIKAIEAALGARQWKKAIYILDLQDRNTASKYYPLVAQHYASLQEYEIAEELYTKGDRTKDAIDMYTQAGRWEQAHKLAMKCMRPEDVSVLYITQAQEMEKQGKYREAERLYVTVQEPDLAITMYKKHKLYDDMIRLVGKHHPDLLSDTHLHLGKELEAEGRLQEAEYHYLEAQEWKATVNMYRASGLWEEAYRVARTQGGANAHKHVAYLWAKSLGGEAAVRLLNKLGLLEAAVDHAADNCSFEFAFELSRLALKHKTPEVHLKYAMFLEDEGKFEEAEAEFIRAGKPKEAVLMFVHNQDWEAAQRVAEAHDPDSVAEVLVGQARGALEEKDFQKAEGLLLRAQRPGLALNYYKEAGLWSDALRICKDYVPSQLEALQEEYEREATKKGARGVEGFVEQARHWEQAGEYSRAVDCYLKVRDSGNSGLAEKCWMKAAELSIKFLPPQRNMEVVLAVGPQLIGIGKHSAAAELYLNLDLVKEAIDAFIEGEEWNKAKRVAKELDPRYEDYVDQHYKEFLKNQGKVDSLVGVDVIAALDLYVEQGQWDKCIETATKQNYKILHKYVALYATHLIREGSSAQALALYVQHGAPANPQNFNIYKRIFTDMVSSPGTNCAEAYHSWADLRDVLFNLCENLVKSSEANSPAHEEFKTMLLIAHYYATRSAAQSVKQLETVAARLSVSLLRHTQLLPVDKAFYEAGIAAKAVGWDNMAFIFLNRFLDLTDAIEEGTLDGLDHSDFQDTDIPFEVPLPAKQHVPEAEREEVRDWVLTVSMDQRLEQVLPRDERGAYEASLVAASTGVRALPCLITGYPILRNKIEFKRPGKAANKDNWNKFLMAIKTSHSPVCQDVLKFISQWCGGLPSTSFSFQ

Key:
[1] = target: IFT172 (UniProt Q9UG01); assay: co-IP; Figure S1A, legend not shown; method taken from the paper's only described test of pairs (co-IP from transfected HEK293T cells)
[2] = target: T1, TTC21B (UniProt Q7Z4L5); assay: as above
T1 sequence: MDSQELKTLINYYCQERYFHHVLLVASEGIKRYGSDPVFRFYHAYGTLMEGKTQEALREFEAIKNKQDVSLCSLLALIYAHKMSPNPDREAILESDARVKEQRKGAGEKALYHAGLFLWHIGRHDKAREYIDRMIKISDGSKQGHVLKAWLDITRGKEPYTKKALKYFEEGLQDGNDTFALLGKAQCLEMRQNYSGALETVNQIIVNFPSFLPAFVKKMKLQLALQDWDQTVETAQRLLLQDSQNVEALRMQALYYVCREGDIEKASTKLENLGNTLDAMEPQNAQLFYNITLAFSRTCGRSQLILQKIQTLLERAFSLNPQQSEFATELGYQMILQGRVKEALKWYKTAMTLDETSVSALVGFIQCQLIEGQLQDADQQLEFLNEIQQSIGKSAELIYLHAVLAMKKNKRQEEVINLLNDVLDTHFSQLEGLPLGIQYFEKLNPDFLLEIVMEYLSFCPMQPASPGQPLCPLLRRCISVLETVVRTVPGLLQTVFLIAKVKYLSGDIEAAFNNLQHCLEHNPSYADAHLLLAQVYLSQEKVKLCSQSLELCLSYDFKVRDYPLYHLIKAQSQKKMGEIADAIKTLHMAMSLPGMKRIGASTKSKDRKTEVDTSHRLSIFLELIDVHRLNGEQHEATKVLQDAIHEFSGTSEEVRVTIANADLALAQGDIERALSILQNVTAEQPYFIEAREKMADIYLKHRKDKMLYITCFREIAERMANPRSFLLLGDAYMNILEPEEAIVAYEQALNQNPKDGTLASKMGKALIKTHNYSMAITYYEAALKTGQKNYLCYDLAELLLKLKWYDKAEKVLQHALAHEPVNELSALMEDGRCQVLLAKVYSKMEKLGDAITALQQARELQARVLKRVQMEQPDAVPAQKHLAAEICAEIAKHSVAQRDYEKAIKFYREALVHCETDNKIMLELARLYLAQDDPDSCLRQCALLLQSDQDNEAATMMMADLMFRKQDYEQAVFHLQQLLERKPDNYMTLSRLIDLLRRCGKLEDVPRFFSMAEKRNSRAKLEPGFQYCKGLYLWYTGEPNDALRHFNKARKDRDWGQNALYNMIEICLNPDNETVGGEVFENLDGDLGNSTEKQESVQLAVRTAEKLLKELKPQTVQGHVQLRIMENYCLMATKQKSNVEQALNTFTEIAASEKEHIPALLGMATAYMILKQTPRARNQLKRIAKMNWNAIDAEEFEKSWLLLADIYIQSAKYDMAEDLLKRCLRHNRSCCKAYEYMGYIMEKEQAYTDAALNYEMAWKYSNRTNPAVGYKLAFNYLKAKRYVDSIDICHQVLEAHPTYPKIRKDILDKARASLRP

- binding [1]: binds
- binding [2]: binds
B1: V5-tagged ANKS6 (ankyrin repeat and sterile alpha motif domain-containing 6) (protein, UniProt Q68DC2 1-871)
chain: MGEGGLPPAFQLLLRACDQGDTETARRLLEPGAAEPAERGAEPEAGAEPAGAEVAGPGAAAAGAVGAPVPVDCSDEAGNTALQFAAAGGHEPLVRFLLRRGASVNSRNHYGWSALMQAARFGHVSVAHLLLDHGADVNAQNRLGASVLTVASRGGHLGVVKLLLEAGAFVDHHHPSGEQLGLGGSRDEPLDITALMAAIQHGHEAVVRLLMEWGADPNHAARTVGWSPLMLAALTGRLGVAQQLVEKGANPDHLSVLEKTAFEVALDCKHRDLVDYLDPLTTVRPKTDEEKRRPDIFHALKMGNFQLVKEIADEDPSHVNLVNGDGATPLMLAAVTGQLALVQLLVERHADVDKQDSVHGWTALMQATYHGNKEIVKYLLNQGADVTLRAKNGYTAFDLVMLLNDPDTELVRLLASVCMQVNKDKGRPSHQPPLPHSKVRQPWSIPVLPDDKGGLKSWWNRMSNRFRKLKLMQTLPRGLSSNQPLPFSDEPEPALDSTMRAAPQDKTSRSALPDAAPVTKDNGPGSTRGEKEDTLLTTMLRNGAPLTRLPSDKLKAVIPPFLPPSSFELWSSDRSRTRHNGKADPMKTALPQRASRGHPVGGGGTDTTPVRPVKFPSLPRSPASSANSGNFNHSPHSSGGSSGVGVSRHGGELLNRSGGSIDNVLSQIAAQRKKAAGLLEQKPSHRSSPVGPAPGSSPSELPASPAGGSAPVGKKLETSKRPPSGTSTTSKSTSPTLTPSPSPKGHTAESSVSSSSSHRQSKSSGGSSSGTITDEDELTGILKKLSLEKYQPIFEEQEVDMEAFLTLTDGDLKELGIKTDGSRQQILAAISELNAGKGRERQILQETIHNFHSSFESSASNTRAPGNSPCA
